Experimental data taken from publication PMC13032676, “PGM1 deficiency is linked to sarcomeric and mitochondrial dysfunction in patient-derived iPSC-cardiomyocytes” (Journal of Translational Medicine, 2026).
Results are given in words; binding and its absence hold for the method and conditions named. Some binding calls cover weakened binding; strength is not graded here. Where a sequence is shown, tags or fusion partners need not be part of it.

T1: Phosphoglucomutase-1 (human PGM1), recombinant (human) (UniProt P36871)
T1 sequence (chain, RED-tris-NTA dye bound to the His6 tag): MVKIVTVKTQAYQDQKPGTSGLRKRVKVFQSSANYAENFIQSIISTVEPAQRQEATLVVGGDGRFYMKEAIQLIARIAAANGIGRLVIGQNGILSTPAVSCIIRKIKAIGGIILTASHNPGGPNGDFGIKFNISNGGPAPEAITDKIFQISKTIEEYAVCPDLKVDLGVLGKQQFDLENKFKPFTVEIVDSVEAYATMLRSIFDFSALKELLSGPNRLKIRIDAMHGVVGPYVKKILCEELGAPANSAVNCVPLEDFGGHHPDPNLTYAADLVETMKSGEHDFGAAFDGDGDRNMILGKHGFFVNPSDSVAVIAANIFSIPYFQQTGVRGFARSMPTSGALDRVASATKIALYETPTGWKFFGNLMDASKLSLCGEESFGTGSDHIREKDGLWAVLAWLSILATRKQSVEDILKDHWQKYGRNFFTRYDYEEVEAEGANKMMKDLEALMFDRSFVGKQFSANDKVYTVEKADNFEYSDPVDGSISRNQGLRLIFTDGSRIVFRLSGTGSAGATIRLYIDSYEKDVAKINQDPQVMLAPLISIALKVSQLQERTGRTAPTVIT


Target: T1, Phosphoglucomutase-1 (human PGM1), recombinant (human)
Experiment: MST; PGM1 labelled on its His6 tag with RED-tris-NTA, 50 nM in all tubes; peptide in a 16-step serial dilution, 375 mM to 11.4 nM as printed; 10 min incubation in the dark; standard capillaries, Monolith NT.115, 22 °C, 40% excitation power, 40% MST power; Kd by MO.Affinity v.2.2.4; both purified

Row | binding | Binder
1 | binds | SSQPRQYNNPIGLYSAEILREMAQMY [ZM peptide of ZASP/Cypher (LDB3) with the dilated cardiomyopathy-associated T206I mutation, 26-mer]
2 | binds | SSQPRQYNNPIGLYSAETLREMAQMY [Wild-type peptide representing the conserved Zasp motif (ZM) of ZASP/Cypher (LDB3), 26-mer]
